For at least one entry, the source does not settle the construct or the ends of the probe. A weaker result is weaker than the reference pair of the same experiment.
Experiments:
Blom7α wt (Homo sapiens) [1] = molecular target: Blom7α wt (Homo sapiens) (UniProt Q7Z7F0); assay: competition with a labelled probe; settings: unlabeled AK48scr (0-40 nM) versus 20 nM biotinylated AK48; EMSA: PBS pH 7.5, 1 mM MgCl2, 1 mM DTT, 5% glycerol, 20 min at room temperature, gel at 4°C; recombinant protein; protein details: His6 (C-terminal as named, pET30A); label: 3' biotin
Blom7-KH (Homo sapiens) = Blom7-KH (Homo sapiens) (UniProt Q7Z7F0); assay: EMSA; settings: 1 mM Mg2+, 20 nM RNA, 0-50 nM protein; EMSA: PBS pH 7.5, 1 mM MgCl2, 1 mM DTT, 5% glycerol, 20 min at room temperature, gel at 4°C; recombinant protein; protein details: His6 (C-terminal as named, pET30A); label: 3' biotin
Blom7α wt (Homo sapiens) [2] = molecular target: Blom7α wt (Homo sapiens) (UniProt Q7Z7F0); assay: EMSA; settings: 1 mM Mg2+, 20 nM RNA, 0-50 nM protein; EMSA: PBS pH 7.5, 1 mM MgCl2, 1 mM DTT, 5% glycerol, 20 min at room temperature, gel at 4°C; recombinant protein; protein details: His6 (C-terminal as named, pET30A); label: 3' biotin

Measured: binding result

CACGCACUCACCACGCACGCAUCCGCUCAC [AK48scr]
binds more weakly: all assays above

Source: PMC3483155
